# From the supplement of paper PMC3334620
# In all, about 33,000 sequences were measured (“E-score (-0.5 to 0.5)”: median about -0.015, highest 2% from about 0.3 on). Some of the results follow.
# Target: T1, Abf1 (UniProt P14164)
# T1 sequence: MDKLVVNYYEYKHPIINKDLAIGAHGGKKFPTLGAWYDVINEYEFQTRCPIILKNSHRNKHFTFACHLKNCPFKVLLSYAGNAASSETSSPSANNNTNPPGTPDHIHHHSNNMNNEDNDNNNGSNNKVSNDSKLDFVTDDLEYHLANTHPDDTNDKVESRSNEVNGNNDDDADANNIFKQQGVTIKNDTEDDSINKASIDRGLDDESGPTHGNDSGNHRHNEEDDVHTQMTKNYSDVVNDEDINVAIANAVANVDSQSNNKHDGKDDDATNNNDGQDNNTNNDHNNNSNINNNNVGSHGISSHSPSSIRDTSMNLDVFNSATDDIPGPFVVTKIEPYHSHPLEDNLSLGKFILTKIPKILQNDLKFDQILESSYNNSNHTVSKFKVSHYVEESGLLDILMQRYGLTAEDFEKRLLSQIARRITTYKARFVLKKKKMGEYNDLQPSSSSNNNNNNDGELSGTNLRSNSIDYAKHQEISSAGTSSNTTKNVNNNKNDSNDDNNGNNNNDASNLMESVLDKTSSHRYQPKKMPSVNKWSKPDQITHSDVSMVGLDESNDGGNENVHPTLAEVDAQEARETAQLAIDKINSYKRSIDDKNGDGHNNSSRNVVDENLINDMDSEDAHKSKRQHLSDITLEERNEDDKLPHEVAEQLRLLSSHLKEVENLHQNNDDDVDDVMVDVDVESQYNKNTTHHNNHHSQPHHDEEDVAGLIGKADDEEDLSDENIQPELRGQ
# Test: PBM E-score (8-mer binding enrichment) (E-score (-0.5 to 0.5)); higher = stronger / more preferred TF binding
# Details: protein concentration: 200 nM; construct: GST-full length
# Method in brief: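 Yeast transcription factors carrying a GST tag, as full-length proteins or DNA-binding domains, were produced by PURExpress in vitro transcription/translation. About 100-200 nM protein was applied to universal all-10-mer Agilent arrays, double-stranded by primer extension on fresh or once-stripped slides. Bound protein was detected with fluorescent anti-GST, and scans were normalised with masliner. The Universal PBM Analysis Suite gave each ungapped eight-base word, pooled with its reverse complement, an E-score, a modified Wilcoxon-Mann-Whitney statistic.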
row,Sequence,PBM E-score
1,ATCATGTG,0.156
2,AACTTAGT,0.0102
3,CCGACAAC,0.0395
4,AATGAGAA,0.132
5,CCTGTACC,-0.0879
6,CCCGAGGG,-0.179
7,GTGAAGTA,0.142
8,TATAACAA,0.105
9,ATTTCGTC,0.229
10,CCTGTCAC,0.149
11,ACCCACCT,-0.266
12,AGTCGAAT,-0.178
13,AACCGTTC,0.204
14,AGGTGGGC,-0.291
15,GAGAAGTA,-0.0578
16,ATTGCACA,0.0349
17,CGCACGAC,0.242
18,CGGGGAGC,-0.00752
19,AGTGTGAT,0.214
20,ACGCACAC,0.0964
21,ATAAGCGA,0.171
22,CGTCACAG,0.0767
23,ACCGATTA,0.107
24,AATAGGTC,0.0547
25,AATACCTG,0.0237

# Individual results from the list:
# Under PBM E-score, ACCCACCT is entered as -0.266
# Under PBM E-score, AGTCGAAT is entered as -0.178
# Under PBM E-score, ATCATGTG is entered as 0.156
# Under PBM E-score, ATTTCGTC is entered as 0.229
# Under PBM E-score, CCTGTACC is entered as -0.0879
# Under PBM E-score, ACGCACAC is entered as 0.0964
# Under PBM E-score, CGGGGAGC is entered as -0.00752

# Continued:

row,Sequence,PBM E-score
1,ACTCGCTA,0.105
2,AATAGCGA,0.234
3,GCCCGGAC,-0.102
4,AAACCACT,-0.142
5,CTGATTGA,0.0847
6,GAACAGGC,-0.227
7,CCTCCGAA,-0.0401
8,GCACTTCC,-0.257
9,AAAGGCGG,-0.0153
10,TAGGCAAA,-0.0493
11,AATGAGGC,-0.0217
12,GCAATCAC,-0.0347
13,ATTCCCAC,-0.00547
14,GCCCGCAC,-0.155
15,ACGATATG,0.304
16,ATGTACGC,0.027
17,ACATTTAA,0.182
18,CTCTTAAC,0.17
19,ACGAGAAC,0.185
20,CTGACTCC,-0.131
21,GCACGGTA,0.206
22,AAACCCTC,-0.168
23,TGTATAAA,0.116
24,ACAGAACC,-0.069
25,ACCTGATC,0.00546

row,Sequence,PBM E-score
1,TATCAAGA,0.057
2,AACGCTTG,-0.239
3,CGAGAGCG,-0.0971
4,AACGATGA,0.243
5,ACCCATAT,0.0238
6,GTTTACGA,0.253
7,ACTCGGAG,-0.00102
8,CCGCTCCG,-0.24
9,CAGGCGCG,-0.212
10,TACTATAA,0.101
11,CAGCAACC,-0.0964
12,AACCCATC,-0.096
13,CCCGTAAG,0.095
14,ACCATTTC,-0.0361
15,GTAGTGTA,0.12
16,CCTCTTTA,-0.116
17,ATGGACAT,0.133
18,GCTAAAGC,-0.16
19,CCTAGATC,0.0796
20,ATTATTGG,-0.015
21,CGTACAGC,-0.0515
22,GCGAGCCA,-0.0175
23,CAGATCGG,-0.205
24,ACTCTGCA,-0.0803
25,ATCACCTG,0.191

row,Sequence,PBM E-score
1,CGCCACCC,-0.22
2,GGCAAGAC,-0.168
3,TAAGTGAA,0.128
4,GACCCAAA,0.00458
5,ATGCACTA,0.176
6,GTTATTCA,0.198
7,CCAATTGA,-0.21
8,CAAAATAC,0.0138
9,AGCGATAT,0.352
10,GCCCTCCC,-0.286
11,CCGCTTGA,-0.0188
12,TAGGGCAA,-0.14
13,CAGTCATA,-0.0487
14,ACCCGACC,-0.103
15,GATCGACC,-0.0655
16,ATAATGTA,0.168
17,CAGTGTTA,-0.163
18,GCGTGGCA,-0.0717
19,AACAGGCG,-0.00189
20,CATGGACA,-0.109
21,CAGCTATG,-0.133
22,CTACAAAG,-0.0121
23,CTACCCAA,-0.00474
24,GTCGCGCA,0.0405
25,CATGTCCA,0.21

row,Sequence,PBM E-score
1,CATTCAGC,0.0488
2,AAGGGCAA,-0.194
3,ATACCCCG,-0.19
4,GATCAGAA,-0.0694
5,AGTGACAG,0.292
6,ACTCTACG,0.0491
7,ACAGCGTA,0.0384
8,GAAGGACA,0.208
9,AGTTTCTC,-0.0331
10,AAATGTAA,0.247
11,GGAAACCA,-0.245
12,ACTTGTCG,-0.0268
13,CAATCAAC,0.145
14,GGCCTGAA,-0.358
15,AAGTCGCG,0.0729
16,AACGAGCG,0.13
17,AATCTGGC,-0.0204
18,GATGCTCA,-0.129
19,ATTCTGCG,0.0746
20,CTACCGGA,-0.217
21,TCGGTTCA,-0.252
22,CACCTATC,0.111
23,CACCTGAA,0.0241
24,CTGCTTTA,0.174
25,GGACAGTA,-0.00085

row,Sequence,PBM E-score
1,ACAGTAAT,0.0618
2,GCTCGACC,-0.112
3,TAAAATAA,0.158
4,CGGACTTC,-0.174
5,CTGGTGCC,-0.224
6,AAATAACT,0.186
7,CATTAAGG,0.0862
8,AGCTATGG,-0.102
9,CGACACCG,-0.128
10,ACGCCCGT,0.0152
11,CGTTGAGC,0.0359
12,TGGACGAA,0.243
13,ATACCATA,0.154
14,CCCTGGTA,-0.209
15,GTCGACGA,0.26
16,TACGTCCA,0.0691
17,ACGGCGAA,0.343
18,ATCTGTAC,0.0718
19,CATGAAAC,-0.165
20,GGAGTGGA,-0.153
21,GAAAGGCA,0.0645
22,CAACCTAA,0.0971
23,ACTGTATA,0.112
24,CTAGCGTC,-0.0778
25,ATGAACGG,0.02

row,Sequence,PBM E-score
1,AGTGATCG,0.239
2,GTATAGAA,0.223
3,CAAAGAAC,-0.0472
4,ACCTCAAC,0.0396
5,CCATCAGA,-0.13
6,CTGACGTA,-0.0588
7,CTCGGTGA,0.135
8,CCCTCAAG,-0.192
9,AGGATCAC,0.153
10,ACAGCCCC,-0.255
11,CCCTGACC,-0.22
12,CACCACAG,-0.0808
13,ACCAAACA,0.239
14,ATGATAGA,0.103
15,CCTACAAG,-0.29
16,GAGAGATA,-0.0109
17,CGACTCTA,-0.0601
18,ACGCGATG,0.132
19,CCAGAAGA,-0.0896
20,CCTTTCAA,-0.0492
21,GCGCAGAC,-0.113
22,AAGGCTTC,-0.157
